The target of the data set is T1, CouR (Rhodococcus jostii RHA1) (UniProt Q0S6D0).
T1 sequence (looked up, limits assumed): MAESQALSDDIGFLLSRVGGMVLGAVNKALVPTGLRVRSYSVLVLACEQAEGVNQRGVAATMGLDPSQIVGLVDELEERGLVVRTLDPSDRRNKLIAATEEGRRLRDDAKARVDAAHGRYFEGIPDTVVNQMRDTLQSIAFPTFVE
As to the kind of experiment: EMSA. The settings on record: 200 nM CouR, EMSA: 20 mM HEPES pH 7.6, 10 mM (NH4)2SO4, 30 mM KCl, 1 mM DTT, 1 mM EDTA, 0.2% Tween 20, 100 ug/ml poly[d(I-C)], 1 nM probe, 25 C, 20 min, recombinant protein, label: 3' DIG-11-ddUTP (probe), unlabelled as competitor. In general terms: Mobility shift assays separate free from complexed probe on a gel.

For at least one entry, the source does not settle the construct or the ends of the probe. Negatives hold for the conditions tested. Where a protein sequence is shown, tags need not be part of it.

For the sequence “CATTGATGATTGAGAATGTCAATGATTAAGG (double strand) [couRp_couNp]”, the binding result is, setting by setting: (500 uM feruloyl-CoA) “no binding”; (500 uM p-coumaroyl-CoA) “no binding”.

Source of the values: PMC4737184, “The activity of CouR, a MarR family transcriptional regulator, is modulated through a novel molecular mechanism” (Nucleic Acids Research, 2015).
